Laboratory results published in PMC9887734, “Meeting abstracts from the 10th International Conference on cGMP: Generators, Effectors and Therapeutic Implications” (Journal of Translational Medicine, 2023).
These are yes or no findings as the source states them, for the method shown. For some of these results: Binding seen in cells or lysates may run through a third protein. Some results given as binding are weak or reduced against the parent protein; the word gives no strength. One block for each molecule: values may come before it.

Chains of the proteins cited; added tags and fusions are not shown. Residues count along the entry.
UniProt P20594, residues 23-1047: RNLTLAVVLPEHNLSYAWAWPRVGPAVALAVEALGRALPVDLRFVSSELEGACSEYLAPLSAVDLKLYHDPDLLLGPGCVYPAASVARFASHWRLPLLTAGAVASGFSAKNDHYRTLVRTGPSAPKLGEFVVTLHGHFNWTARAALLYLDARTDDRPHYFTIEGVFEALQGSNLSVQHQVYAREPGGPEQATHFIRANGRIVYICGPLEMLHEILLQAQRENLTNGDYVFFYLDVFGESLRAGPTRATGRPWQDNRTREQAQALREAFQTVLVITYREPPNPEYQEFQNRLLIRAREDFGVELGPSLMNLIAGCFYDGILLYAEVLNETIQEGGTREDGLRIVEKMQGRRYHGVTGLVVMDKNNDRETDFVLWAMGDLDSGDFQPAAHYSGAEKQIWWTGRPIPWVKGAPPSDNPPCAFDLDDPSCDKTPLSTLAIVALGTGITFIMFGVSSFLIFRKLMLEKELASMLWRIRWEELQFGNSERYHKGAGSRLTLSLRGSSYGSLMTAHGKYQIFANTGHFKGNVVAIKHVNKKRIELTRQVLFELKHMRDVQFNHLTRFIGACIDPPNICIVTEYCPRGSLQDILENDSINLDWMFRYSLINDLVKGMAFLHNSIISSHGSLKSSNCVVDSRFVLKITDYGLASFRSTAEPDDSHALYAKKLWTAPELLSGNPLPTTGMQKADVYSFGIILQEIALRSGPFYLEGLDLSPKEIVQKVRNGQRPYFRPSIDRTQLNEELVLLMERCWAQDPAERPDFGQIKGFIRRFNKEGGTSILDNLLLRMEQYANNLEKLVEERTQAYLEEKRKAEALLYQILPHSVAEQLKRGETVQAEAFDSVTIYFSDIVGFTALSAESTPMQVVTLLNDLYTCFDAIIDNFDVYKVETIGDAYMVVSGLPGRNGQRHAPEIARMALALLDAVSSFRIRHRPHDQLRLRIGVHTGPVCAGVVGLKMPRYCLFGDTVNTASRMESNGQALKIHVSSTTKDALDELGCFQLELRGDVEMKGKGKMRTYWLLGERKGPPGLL
UniProt Q9Z329: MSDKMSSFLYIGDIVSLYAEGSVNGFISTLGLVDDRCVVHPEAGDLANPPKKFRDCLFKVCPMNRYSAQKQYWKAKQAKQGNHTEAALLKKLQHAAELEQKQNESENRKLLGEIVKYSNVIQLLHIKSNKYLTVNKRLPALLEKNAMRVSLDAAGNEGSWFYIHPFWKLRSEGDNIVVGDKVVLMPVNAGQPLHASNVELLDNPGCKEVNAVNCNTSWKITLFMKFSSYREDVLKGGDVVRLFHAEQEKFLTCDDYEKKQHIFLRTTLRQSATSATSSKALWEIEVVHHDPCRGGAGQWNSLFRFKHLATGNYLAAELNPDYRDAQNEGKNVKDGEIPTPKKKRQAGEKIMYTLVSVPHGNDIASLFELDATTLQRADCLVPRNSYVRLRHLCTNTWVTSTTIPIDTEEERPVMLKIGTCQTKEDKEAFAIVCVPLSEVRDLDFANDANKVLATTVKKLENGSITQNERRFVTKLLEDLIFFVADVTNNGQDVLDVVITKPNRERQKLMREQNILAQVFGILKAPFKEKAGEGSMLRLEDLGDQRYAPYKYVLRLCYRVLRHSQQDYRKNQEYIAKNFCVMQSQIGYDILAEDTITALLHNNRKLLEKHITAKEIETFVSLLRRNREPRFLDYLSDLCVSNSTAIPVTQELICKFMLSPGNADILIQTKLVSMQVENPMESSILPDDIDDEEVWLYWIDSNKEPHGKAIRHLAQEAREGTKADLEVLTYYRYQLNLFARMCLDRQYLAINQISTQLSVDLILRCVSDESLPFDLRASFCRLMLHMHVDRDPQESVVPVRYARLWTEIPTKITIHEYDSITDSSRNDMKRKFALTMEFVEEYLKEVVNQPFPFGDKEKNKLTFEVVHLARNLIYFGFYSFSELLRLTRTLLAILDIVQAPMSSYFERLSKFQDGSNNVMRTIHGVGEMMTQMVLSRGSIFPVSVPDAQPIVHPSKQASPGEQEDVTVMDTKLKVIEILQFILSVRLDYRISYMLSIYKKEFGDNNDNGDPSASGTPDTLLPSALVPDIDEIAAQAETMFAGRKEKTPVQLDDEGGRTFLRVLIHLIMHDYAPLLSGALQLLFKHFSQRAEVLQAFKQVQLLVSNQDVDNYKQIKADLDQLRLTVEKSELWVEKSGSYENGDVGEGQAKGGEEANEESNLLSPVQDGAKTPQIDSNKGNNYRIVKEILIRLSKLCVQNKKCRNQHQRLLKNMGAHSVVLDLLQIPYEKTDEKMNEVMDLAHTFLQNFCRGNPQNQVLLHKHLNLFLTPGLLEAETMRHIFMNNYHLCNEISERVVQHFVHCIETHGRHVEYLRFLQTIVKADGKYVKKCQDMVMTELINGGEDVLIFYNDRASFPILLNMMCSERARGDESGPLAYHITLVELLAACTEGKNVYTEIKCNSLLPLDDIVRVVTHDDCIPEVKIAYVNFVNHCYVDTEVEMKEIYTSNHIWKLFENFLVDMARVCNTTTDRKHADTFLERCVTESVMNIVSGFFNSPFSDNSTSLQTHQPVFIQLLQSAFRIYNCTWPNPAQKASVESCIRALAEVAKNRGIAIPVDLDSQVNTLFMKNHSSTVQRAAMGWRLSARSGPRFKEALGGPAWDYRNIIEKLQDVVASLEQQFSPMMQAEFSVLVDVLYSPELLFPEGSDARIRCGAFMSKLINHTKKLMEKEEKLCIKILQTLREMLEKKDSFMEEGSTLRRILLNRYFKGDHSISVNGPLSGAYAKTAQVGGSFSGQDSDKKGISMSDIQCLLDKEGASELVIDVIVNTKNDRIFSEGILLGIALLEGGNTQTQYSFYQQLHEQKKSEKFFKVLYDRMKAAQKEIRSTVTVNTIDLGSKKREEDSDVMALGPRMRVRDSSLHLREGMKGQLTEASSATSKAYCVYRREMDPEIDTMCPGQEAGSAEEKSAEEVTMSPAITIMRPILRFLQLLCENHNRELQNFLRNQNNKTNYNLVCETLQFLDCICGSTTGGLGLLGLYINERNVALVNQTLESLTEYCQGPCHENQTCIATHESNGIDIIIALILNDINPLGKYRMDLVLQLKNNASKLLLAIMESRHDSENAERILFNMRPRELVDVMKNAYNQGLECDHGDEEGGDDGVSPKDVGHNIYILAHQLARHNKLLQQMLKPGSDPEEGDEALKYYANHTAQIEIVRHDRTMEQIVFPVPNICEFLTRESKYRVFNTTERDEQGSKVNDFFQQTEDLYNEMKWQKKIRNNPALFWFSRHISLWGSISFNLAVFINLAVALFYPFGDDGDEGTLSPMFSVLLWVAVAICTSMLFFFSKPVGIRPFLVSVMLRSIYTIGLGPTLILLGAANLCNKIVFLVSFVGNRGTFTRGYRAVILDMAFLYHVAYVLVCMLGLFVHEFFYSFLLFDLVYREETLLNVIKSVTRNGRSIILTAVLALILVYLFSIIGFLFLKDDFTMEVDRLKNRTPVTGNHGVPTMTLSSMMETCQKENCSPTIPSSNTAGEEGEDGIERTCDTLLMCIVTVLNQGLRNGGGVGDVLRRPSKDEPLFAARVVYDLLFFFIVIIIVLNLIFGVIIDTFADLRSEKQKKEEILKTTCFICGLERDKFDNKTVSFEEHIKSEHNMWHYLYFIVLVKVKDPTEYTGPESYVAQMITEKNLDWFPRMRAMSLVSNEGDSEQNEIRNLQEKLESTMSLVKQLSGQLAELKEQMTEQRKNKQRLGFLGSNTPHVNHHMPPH
UniProt P70227: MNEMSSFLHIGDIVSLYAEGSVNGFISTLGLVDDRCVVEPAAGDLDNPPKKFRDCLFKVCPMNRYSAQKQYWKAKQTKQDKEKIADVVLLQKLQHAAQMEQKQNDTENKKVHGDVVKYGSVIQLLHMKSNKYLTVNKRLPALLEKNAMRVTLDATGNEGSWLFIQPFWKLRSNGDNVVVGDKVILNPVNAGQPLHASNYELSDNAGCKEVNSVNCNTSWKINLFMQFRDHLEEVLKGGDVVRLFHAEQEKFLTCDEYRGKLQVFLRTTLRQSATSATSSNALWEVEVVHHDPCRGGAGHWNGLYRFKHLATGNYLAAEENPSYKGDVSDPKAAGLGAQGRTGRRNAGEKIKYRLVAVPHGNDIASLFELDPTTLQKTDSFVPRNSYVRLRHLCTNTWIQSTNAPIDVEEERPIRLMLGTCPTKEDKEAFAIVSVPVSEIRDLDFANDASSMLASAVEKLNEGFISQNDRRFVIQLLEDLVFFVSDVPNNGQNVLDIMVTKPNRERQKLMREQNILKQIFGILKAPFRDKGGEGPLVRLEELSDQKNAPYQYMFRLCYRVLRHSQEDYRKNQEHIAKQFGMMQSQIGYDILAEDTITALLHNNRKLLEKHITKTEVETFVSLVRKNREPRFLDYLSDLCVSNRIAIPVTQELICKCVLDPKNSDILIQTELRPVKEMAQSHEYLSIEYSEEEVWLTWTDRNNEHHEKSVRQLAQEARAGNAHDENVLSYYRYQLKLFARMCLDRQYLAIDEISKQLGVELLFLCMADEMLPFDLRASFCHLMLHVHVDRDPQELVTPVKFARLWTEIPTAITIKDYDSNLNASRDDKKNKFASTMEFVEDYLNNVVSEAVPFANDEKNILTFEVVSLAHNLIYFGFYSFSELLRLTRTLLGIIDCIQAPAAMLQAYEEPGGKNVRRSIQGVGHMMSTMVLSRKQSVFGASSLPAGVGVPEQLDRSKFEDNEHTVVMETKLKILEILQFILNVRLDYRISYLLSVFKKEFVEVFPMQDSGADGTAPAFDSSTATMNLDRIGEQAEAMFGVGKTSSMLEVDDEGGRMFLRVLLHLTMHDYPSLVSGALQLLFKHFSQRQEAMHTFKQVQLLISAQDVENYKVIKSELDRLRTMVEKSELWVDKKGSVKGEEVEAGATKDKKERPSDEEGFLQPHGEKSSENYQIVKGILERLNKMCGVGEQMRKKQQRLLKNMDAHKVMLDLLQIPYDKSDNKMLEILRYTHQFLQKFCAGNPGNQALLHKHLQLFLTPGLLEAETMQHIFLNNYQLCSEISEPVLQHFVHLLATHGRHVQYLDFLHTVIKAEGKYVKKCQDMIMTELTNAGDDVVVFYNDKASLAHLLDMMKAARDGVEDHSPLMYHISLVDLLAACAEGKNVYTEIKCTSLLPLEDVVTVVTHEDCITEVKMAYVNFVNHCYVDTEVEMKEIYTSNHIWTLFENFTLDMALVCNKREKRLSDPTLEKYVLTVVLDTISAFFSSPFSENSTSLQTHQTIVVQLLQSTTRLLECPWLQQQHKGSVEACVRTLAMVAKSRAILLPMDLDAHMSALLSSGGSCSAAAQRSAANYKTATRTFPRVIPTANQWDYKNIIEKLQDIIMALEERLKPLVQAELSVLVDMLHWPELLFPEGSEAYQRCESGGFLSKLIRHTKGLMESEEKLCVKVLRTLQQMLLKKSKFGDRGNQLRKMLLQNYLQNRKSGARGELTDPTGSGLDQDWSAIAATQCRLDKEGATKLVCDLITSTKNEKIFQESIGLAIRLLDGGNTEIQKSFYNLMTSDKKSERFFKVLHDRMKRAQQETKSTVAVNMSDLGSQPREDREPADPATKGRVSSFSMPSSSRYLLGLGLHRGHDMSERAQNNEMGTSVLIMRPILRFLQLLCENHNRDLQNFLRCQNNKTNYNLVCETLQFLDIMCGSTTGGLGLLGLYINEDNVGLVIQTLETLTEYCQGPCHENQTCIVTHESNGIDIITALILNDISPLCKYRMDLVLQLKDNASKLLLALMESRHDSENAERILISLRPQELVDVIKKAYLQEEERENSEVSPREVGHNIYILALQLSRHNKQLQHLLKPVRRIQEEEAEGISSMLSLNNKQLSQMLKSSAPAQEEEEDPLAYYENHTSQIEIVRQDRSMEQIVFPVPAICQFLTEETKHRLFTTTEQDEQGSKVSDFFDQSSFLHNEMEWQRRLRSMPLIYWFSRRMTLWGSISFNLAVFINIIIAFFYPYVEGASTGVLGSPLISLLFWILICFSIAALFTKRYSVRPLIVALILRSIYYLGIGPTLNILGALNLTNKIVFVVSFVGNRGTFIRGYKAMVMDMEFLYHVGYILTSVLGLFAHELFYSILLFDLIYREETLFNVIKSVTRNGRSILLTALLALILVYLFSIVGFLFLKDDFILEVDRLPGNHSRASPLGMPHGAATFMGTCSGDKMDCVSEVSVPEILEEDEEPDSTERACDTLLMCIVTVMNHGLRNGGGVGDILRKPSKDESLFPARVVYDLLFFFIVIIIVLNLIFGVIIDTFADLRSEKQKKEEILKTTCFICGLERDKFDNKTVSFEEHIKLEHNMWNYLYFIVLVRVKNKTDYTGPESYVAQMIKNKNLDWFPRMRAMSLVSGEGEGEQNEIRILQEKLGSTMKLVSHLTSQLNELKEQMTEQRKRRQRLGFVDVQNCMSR

Experiments:
[1] = biological target: T1, IRAG2 (mouse (endogenous in platelets)) (UniProt Q60664); experiment: co-IP; murine platelets; co-immunoprecipitation with anti-IRAG2 antibody, SDS-PAGE and Western blot
T1 sequence: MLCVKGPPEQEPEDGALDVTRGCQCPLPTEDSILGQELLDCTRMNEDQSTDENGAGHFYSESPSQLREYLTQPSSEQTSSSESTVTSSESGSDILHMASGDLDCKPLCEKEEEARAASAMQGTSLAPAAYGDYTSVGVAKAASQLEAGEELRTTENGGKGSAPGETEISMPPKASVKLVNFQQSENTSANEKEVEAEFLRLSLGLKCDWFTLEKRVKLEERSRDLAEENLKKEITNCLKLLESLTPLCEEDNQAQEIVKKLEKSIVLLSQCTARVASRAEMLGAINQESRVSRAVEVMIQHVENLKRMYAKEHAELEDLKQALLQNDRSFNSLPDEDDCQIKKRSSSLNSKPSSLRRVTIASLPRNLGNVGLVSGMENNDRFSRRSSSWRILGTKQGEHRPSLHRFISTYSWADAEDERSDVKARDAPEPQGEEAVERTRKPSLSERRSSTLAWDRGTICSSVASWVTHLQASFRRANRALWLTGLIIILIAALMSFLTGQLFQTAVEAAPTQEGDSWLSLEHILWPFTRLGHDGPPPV

[2] = biological target: Lamin A/C (rat (endogenous in RAOSMC)) (UniProt P48679); experiment: disome-selective profiling (DiSP); RAOSMC; monosomes and nascent-chain-coupled disomes separated by sucrose gradient after RNase digestion, footprints sequenced; co-co assembly of nascent chains
[3] = biological target: Vimentin (rat (endogenous in RAOSMC)) (UniProt P31000); experiment: as above
NP receptor NPR-A = NP receptor NPR-A (UniProt P16066); experiment: co-IP; transfected HEK293 cells
NP receptor NPR-B = NP receptor NPR-B (UniProt P20594); experiment: co-IP; transfected HEK293 cells

Molecule: IP3R2 (from UniProt Q9Z329 1-2701) (receptor)
binding [1]: binds

Molecule: IP3R3 (from UniProt P70227 1-2670) (receptor)
binding [1]: binds

Molecule: Lamin A/C (from UniProt P48679 1-647)
binding [2]: binds

Molecule: Vimentin (from UniProt P31000 1-466)
binding [3]: binds

Molecule: cytohesin-2 (from UniProt Q99418 1-400)
binding (NP receptor NPR-A): binds
binding (NP receptor NPR-B): binds

Other lines, results leading:

binding [1]: binds
Molecule: IP3R1 (from UniProt P11881 1-2749) (receptor)

binding (NP receptor NPR-A): binds
binding (NP receptor NPR-B): binds
Molecule: cytohesin-4 (from UniProt Q9UIA0 1-394)

binding [1]: no binding
B1: IRAG1 (protein, UniProt Q9WUX5 1-899)
chain: MGRSLTCPFGISPACGAQASWSIFGVGTAEVPGTHSHSNQAAAMPHIPEDEEPPGEPQAAQTQDSPSAGPFPSPPTIVLTGDASSPEGETDKNLVNRAPSPHRRLSHRHLKVSTASLTSVDPSGHVIDLVNDQLPDISISEEDKKKNLALLEEAKLVSERFLTRRGRKSRSSLGDSPSAVSPNLSSGASPASSRSCSLTISTSPGLDICSGPQSPLPGAPPQQKGHEDGVSSPCPGEPNVSKGLADLKQNDQRKVSQGRLAPRSPTVEKTKELTVEQKENFDPLQHVEATPMAQASGASISGKMALNSPQPGPAEMELGRQLLKTAREGNPLPRTTAQGSGGTVSPHSLGQGSAGEPMGPKAGSKAELRSPVSRPPLIRGVSWDSSPEEPGPLLQKVLAKLPLAEEEKRFPGKAKPAKPPGLKDFQIQVQPVRMQKLTKLREEHILMRNQNLVGFKLPELSEAAEQDKGVSPELAPAAEEEESKSGLDVMPNISDILLRKLRVHKSLTGSAPPLTEKEVENVFVQLSLAFRNDSYTLESRINQAERERNLTEENTEKELENFKASITSSANIWYHCEHRETYQKLLEDIAVLHRLAARLSSRAEVVGAVRQEKRMSKATEVMMQYVENLKRTYEKDHAELMEFKKLANQNSSRSCGPSEDGVPRTARSMSLTMGKNMPRRRVSVAVVPKFNALNLPGQAPSSSPMPSLPALSESSNGKSSISVSPALPALLENGKTNAEANCEVGAPVPLPSCLEETSQETKAKAEEEAYSKGYQEGVKKTEELQDLKEEEEEEQKTESPEEPEEVEETQEDEKDQGSSKLEELVHFLQVMYPKLCQHWQVIWMMAAVMLVLSVVLGLYSSYNSCTEEADGPPGRSTCSAAQRDSWWSSGLQQELPAEQ
